In patent EP3730147A1, “PREPARATION WITH HYPOGLYCEMIC EFFECT” (Instytut Biotechnologii i Badan Medycznych "Biolamed" SP. Z …, priority 2019, dated 2020):
For at least one compound, name, drawing or mass did not settle the structure.

Protein sequences, listed by entry. Tags and fused reporters are not part of them.
UniProt P05370, whole entry: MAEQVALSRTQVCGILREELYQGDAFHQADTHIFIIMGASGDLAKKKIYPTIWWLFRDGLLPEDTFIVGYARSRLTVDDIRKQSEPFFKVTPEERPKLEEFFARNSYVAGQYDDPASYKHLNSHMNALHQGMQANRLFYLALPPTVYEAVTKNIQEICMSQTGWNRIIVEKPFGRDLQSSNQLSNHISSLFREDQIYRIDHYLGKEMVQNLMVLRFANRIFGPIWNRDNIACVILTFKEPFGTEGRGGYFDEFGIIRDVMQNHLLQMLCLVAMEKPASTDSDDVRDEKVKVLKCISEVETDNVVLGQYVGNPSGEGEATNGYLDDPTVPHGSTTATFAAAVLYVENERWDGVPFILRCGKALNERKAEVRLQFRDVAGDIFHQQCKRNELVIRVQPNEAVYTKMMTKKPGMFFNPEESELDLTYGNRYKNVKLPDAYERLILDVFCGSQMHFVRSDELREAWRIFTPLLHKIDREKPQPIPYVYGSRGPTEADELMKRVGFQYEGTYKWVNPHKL

How the values were obtained:
[1] = target: T1, rat liver glucose-6-phosphate dehydrogenase (DG-6-P) (Rattus norvegicus, UniProt P05370); assay: Effect on DG-6-P activity in 5.6-fold purified rat liver enzyme; type: biochemical
T1 construct: an additional enzyme purification procedure was performed; from tissue; host or cells: rat liver (5.6-fold purified enzyme preparation)
From the text: Rat liver glycogen phosphorylase, rat liver and skeletal muscle hexokinase, rat liver glucose-6-phosphate dehydrogenase (DG-6-P), rat liver and skeletal muscle phosphofructokinase were selected as potential targets for in vitro testing of the hypoglycemic activity of lupane triterpenoids.
Surprising results were obtained by examining the effect of lupane triterpenoids on glucose-6-phosphate activity. […] In both cases, the observed effects were dose-dependent. […] Table 1. Effect of lupane triterpenoids on DG-6-P activity in 5.6-fold purified rat liver

Wistar rats = assay: Pancreatic islet morphometry in rats with alloxan-induced diabetes, 30 days treatment; type: in vivo
Protocol: The possible cytoprotective effect of lupane triterpenoids on the functional state of the pancreas in alloxan-induced diabetes in rats was evaluated. Alloxane was used to induce diabetes, which causes damage to the necrotic islet type pancreatic apparatus due to selective accumulation in β-cells and induction of massive free radical generation. The study was conducted on Wistar rats weighing 220-250 g. All animals were subjected to two weeks of observation prior to the experiment to exclude infection. Rats were housed in standard cages, 5 individuals in each. […] The animals had free access to water and standard laboratory feed ad libitum. Diabetes was caused by a single intraperitoneal administration of alloxan at a dose of 170 mg/kg bw. The development of diabetes was observed on the basis of the main symptoms (polydipsia, polyphagia), glycosuria and hyperglycemia. Animals with high glucose levels of at least 14 mmol/L were selected for the experiment. Animals were randomized into 8 groups of 8 individuals each. The first group, the control group, was formed from healthy animals without diabetes. […]

pancreatic islet β-cells = assay: Insulin secretion by isolated Langerhans islets (enzyme immunoassay); type: cell-based; conditions: 10 µM, 30 minutes incubation, compared to the control group
Protocol: To study the effect of betulin and betulinic acid on insulin secretion by pancreatic islet β-cells, their solutions in DMSO were incubated with isolated Langerhans islands in concentrations of 10 µM for 30 minutes, after which the insulin content in the incubation medium was determined by enzyme immunoassay.
The strongest reaction was observed after 30 minutes of incubation in the presence of 10 µM lupane triterpenoids (Figure 1).

C=C(C)[C@@H]1CC[C@]2(C(=O)O)CC[C@]3(C)[C@H](CC[C@@H]4[C@@]5(C)CC[C@H](O)C(C)(C)[C@@H]5CC[C@]43C)[C@@H]12 [Betulinic acid]
E (DG-6-P activity) ([1]; 5 µM): 0,144±0,002
E (DG-6-P activity) ([1]; 25 µM): 0,093±0,007
area of Langerhans islets and their number (Wistar rats; 50 mg/kg/day for 30 days): tendency to increase
morphological picture of the pancreas (Wistar rats; 100 mg/kg/day for 30 days, compared to the untreated group): significant improvement
insulin secretion by pancreatic islet β-cells (pancreatic islet β-cells): statistically significantly increase
